Laboratory results as given in PMC12428237 (Foods, 2025).
End groups of sequences in plain letters are not given here.

Assay: peptide made by a vendor (Fmoc solid-phase peptide synthesis)
Conditions: whole synthesis

## DEEENDQVK
  final HPLC purity: >98%
